Laboratory results as given in patent US7198942B2, “Acetylcholine receptor subunits” (Bayer CropScience LP, priority 2000, dated 2007).
At least one compound was matched to its structure with a doubt left.

By UniProt entry, the sequences of proteins in these tests, tags left out. Residues count along the entry.
UniProt P09482, 24-622 D127N/A129E/H132L/L133A/H137T/F139N/D141T/I144V/K145E/M147R/S157E/T161E/F162Y/N169T/K171V: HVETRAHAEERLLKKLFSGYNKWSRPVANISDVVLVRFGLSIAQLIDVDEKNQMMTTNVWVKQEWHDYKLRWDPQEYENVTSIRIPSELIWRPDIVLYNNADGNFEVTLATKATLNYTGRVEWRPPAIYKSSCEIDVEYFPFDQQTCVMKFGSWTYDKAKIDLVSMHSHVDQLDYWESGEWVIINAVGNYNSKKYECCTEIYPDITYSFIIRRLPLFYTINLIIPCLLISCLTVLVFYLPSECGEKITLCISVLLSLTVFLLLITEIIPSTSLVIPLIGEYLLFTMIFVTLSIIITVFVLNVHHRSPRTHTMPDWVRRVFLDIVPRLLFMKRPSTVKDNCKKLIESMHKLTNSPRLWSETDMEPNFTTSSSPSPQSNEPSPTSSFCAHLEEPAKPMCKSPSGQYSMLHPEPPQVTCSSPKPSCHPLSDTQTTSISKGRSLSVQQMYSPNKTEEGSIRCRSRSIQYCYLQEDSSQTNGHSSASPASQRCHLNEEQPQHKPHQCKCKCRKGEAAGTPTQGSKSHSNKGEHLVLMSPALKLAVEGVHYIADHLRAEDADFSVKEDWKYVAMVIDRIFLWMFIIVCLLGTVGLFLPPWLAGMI
UniProt P09484, 19-491, stated change not applied: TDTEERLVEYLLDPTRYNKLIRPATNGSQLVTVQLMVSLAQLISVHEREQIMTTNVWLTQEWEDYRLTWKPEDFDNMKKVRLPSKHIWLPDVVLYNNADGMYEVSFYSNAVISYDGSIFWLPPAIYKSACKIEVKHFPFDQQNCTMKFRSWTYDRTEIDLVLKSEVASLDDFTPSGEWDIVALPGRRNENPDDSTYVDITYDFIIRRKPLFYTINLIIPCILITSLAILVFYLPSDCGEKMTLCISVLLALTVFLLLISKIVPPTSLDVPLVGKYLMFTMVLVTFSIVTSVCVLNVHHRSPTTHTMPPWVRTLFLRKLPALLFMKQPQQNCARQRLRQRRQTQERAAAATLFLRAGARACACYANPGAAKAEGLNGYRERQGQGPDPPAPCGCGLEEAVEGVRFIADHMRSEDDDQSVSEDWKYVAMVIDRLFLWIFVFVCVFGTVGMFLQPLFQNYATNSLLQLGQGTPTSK

What was measured:
Type in all cases: cell-based, Heliothis virescens / chicken
[1] = target: T1, receptors consisting of the chicken β2 subunit and polypeptide according to SEQ ID NO: 11 (Gallus gallus, UniProt P09482+P09484, A209V/D197E/E200T/E219T/G202V/G211A/I207L/I224P/K217F/L196S/N208E/N212V/P226L/Q195L/S215E/S231N/T222D/V205D/V210P/W199Y/Y198F/Y213R/Y230F); conditions: Xenopus oocytes, membrane voltage −80 mV
T1 construct: expressed in transfected cells; host or cells: Xenopus oocytes (nuclear injection of cDNA expression vectors)
Protocol: (§1) Xenopus oocytes were isolated and prepared as previously described (Bertrand et al. 1991). On the first day after isolation of the oocytes, in each case 10 nl of a solution with 2 ng of an appropriate cDNA expression vector were injected into the cell nuclei of the oocytes. The oocytes were kept at 19° C. in a suitable medium (BARTH solution consisting (in mM) of NaCl 88, KCl 1, NaHCO3 2.4, MgSO4 0.82, Ca(NO3)2 0.33, CaCl2 0.41, HEPES 10, pH 7.4) for 3–5 days. After this time, the electrophysiological experiments were carried out.
(§2) Electrophysiological recordings were carried out using a dual electrode voltage clamp by tried and tested methods which are well known (compare Bertrand et al. 1992). Each oocyte was placed singly in a measurement chamber and pierced by two microelectrodes. […] The membrane voltage was fixed at −80 mV using a voltage clamp amplifier (TEC-00, npi, Tamm, Germany), and the inward current flowing through the cell membrane was measured and recorded by computer. Frog Ringer solution containing 115 mM NaCl; 2.5 mM KCl; 1.8 mM CaCl2; 10 mM HEPES; at pH 7.4 (adjusted with NaOH) flowed at a flow rate of 5–10 ml/minute through the measurement chamber. In order to test acetylcholine, imidacloprid or another active substance on these oocytes, the substance was added in the intended concentration to the frog Ringer solution and the perfusion of the measurement chamber was briefly changed over to this test solution. Acetylcholine (Fluka, Buchs, Switzerland) was stored as stock solution at −20° C. and added to the measurement solution immediately before the experiment.
(§3) In this case it is immediately evident from the occurrence of an additional inward current signal whether the receptor variant expressed in the particular oocyte can be activated by imidacloprid or not.
(§4) In order to characterize the sensitivity of the modified receptors to acetylcholine and imidacloprid in more detail, dose-effect plots were recorded by repeating the experiment described above with different concentrations of the substance.

[2] = target: T2, receptors consisting of the chicken β2 subunit and polypeptide according to SEQ ID NO: 3 (Gallus gallus, UniProt P09482+P09484, A129E/D127N/D141T/F139N/F162Y/H132L/H137T/I144V/K145E/K171V/L133A/M147R/N169T/S157E/T161E); conditions: Xenopus oocytes, membrane voltage −80 mV, FIG. 2A
T2 construct: expressed in transfected cells; host or cells: Xenopus oocytes (nuclear injection of cDNA expression vectors)
Protocol: as §1, §2, §3, §4

[3] = target: T3, receptors consisting of the chicken β2 subunit and polypeptide according to SEQ ID NO: 7 (Gallus gallus, UniProt P09482+P09484, INS192RGTNVVELG); conditions: Xenopus oocytes, membrane voltage −80 mV
T3 construct: expressed in transfected cells; host or cells: Xenopus oocytes (nuclear injection of cDNA expression vectors)
Protocol: as §1, §2, §3, §4

[4] = target: T4, receptor containing polypeptide shown in SEQ ID NO: 3 and the chicken β2 subunit (Gallus gallus, UniProt P09482+P09484, A129E/D127N/D141T/F139N/F162Y/H132L/H137T/I144V/K145E/K171V/L133A/M147R/N169T/S157E/T161E); assay: Whole-cell recordings on transfected Sf9 cells, SEQ ID NO: 3/chicken β2; conditions: −70 mV, 1000 μM acetylcholine, FIG. 3
T4 construct: expressed in transfected cells; host or cells: Spodoptera frugiperda Sf9 cells (transient, DAC-30; GFP co-transfected as a marker)
Source text: Spodoptera frugiperda 9 (Sf9) cells were transfected simultaneously with cDNA expression plasmids which code for the modified heliothis/chicken subunit and for the chicken β2 subunit using a liposomal transfection reagent (DAC-30, Eurogentec, Belgium). A cDNA expression construct for the green fluorescent protein from Aequoria victoria was transfected simultaneously. This makes it possible simply to identify transfected cells because experience has shown that most of the cells which have taken up one of the constructs have also taken up the other ones. 24 to 48 hours after transfection, the currents through the cell membrane of the Sf9 cells were measured by whole-cell recordings. For this purpose, the potential difference across the cell membrane was kept constant at −70 mV. Substances were applied using the U-tube reversed flow technique (Fenwick 1982). The volume of the experimental chamber, which was continuously perfused with bath solution (3 ml/min), was less than 0.5 ml. […] The pipette solution contained (in mM): 150 KCl, 10 HEPES 10 K-EGTA (pH 7.2). The microelectrodes were produced in an electrode puller (Zeitz, Germany) from borosilicate glass blanks (external diameter 1.6 mm, Hilgenberg, Germany). The resistance of the flame-polished microelectrodes on use of the abovementioned pipette and bath solutions was between 4 and 6 MΩ. […]

[5] = target: T5, acetylcholine receptors containing a subunit shown in SEQ ID NO: 3 (and chicken β2) (Gallus gallus, UniProt P09482+P09484, A129E/D127N/D141T/F139N/F162Y/H132L/H137T/I144V/K145E/K171V/L133A/M147R/N169T/S157E/T161E); assay: Fura-2 calcium imaging in Sf9 cells, SEQ ID NO: 3/chicken β2; conditions: final concentration of acetylcholine 1 mM, FIG. 4 top
T5 construct: expressed in transfected cells; host or cells: Spodoptera frugiperda Sf9 cells (transient, DAC-30; GFP co-transfected as a marker)

CC(=O)OCC[N+](C)(C)C [acetylcholine]
ligand-induced conductance / sensitivity [1]: display ligand-induced conductance
ligand-induced conductance / sensitivity [2]: display ligand-induced conductance
ligand-induced conductance / sensitivity [3]: display ligand-induced conductance
inward currents after stimulus [4]: strong inward currents
rise in intracellular calcium concentration (Fura-2 ratio) [5]: rise in the calcium concentration in the cell
